Patent US8476081B2, “Assay for evaluating affinity and specificity of ligand-albumin binding” (Janssen Pharmaceutica NV, priority 2009, dated 2013)

Chains of the proteins cited; added tags and fusions are not shown. Residues count along the entry.
UniProt P02768, 25-609: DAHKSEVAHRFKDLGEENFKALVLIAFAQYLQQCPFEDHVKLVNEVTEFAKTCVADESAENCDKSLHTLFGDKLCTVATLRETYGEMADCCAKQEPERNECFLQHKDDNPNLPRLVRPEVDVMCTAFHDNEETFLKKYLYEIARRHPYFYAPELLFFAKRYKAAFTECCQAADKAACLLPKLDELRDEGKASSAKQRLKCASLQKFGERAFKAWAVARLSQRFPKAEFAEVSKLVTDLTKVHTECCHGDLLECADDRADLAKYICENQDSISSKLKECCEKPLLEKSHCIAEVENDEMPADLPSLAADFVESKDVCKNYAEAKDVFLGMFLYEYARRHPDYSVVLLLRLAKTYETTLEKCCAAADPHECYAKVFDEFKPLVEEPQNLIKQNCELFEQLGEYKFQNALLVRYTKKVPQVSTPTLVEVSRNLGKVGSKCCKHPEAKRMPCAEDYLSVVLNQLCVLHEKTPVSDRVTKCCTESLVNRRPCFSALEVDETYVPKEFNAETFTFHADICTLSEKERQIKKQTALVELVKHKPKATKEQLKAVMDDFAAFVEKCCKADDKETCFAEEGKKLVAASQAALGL
UniProt P02769, 25-607: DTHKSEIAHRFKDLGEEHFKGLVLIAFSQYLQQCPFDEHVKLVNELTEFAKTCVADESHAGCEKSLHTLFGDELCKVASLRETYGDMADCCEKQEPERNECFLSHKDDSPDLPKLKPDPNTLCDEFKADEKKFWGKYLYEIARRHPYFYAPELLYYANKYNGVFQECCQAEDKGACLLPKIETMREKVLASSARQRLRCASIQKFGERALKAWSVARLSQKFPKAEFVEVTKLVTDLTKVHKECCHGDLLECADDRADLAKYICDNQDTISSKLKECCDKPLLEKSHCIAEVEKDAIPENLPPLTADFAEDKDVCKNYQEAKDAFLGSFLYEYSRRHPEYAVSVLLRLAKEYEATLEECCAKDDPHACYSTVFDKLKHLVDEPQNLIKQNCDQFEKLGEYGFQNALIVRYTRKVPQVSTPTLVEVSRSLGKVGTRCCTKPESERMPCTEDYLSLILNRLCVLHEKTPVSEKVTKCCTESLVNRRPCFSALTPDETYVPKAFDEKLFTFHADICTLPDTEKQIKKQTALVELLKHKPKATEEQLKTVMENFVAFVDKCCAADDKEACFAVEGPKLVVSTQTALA
UniProt P02770, 25-608: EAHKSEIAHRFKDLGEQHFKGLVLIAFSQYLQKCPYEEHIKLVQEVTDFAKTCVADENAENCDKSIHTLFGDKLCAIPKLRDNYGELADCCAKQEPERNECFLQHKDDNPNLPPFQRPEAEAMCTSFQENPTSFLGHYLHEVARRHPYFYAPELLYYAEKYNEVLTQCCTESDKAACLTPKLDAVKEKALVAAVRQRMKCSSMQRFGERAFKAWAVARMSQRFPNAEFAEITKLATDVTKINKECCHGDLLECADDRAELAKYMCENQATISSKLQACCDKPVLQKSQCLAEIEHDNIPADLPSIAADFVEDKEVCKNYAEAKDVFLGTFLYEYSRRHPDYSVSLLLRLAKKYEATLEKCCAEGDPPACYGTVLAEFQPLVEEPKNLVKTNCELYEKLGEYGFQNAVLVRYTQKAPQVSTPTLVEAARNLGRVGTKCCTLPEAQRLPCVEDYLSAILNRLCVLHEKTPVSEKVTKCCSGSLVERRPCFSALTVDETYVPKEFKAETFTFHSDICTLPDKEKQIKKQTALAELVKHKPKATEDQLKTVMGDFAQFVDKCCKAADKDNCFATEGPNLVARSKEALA
UniProt P07724, 25-608: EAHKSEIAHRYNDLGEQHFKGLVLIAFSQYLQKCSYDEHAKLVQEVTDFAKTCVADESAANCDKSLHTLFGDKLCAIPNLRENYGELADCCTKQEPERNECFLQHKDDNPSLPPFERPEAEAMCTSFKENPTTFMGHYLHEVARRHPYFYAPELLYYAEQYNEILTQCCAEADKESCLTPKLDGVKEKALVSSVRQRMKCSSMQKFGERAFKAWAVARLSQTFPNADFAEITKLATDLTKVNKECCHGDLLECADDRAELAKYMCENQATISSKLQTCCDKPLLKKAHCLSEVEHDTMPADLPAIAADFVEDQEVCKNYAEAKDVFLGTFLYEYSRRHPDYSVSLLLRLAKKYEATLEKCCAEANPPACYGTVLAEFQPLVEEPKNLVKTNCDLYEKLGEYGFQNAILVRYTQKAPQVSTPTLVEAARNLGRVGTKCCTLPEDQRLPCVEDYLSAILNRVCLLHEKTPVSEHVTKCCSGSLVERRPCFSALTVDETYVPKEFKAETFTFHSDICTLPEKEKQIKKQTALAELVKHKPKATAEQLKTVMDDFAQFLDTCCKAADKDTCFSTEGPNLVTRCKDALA

Experiments:
[1] = molecular target: Human Serum Albumin (HSA) (Homo sapiens, UniProt P02768); experiment: ThermoFluor thermal shift assay with human serum albumin; settings: for Type of HSA Binding Interaction: classified from KD versus IC50 and % displacement of 1,8-ANS
Method: 1× reaction mixture of about 50 μg/mL human serum albumin, about 4 μM 1,8-ANS, about 150 mM NaCl, about 25 mM PIPES, pH 7.2, and about 0.002% Tween®-20 was prepared.
To prevent evaporation, about 1 μL of silicone oil was added to the plate using multichannel pipettors.
The plates were loaded onto a ThermoFluor® device and heated from about 25° C. to about 95° C. at a ramp-rate of about 1° C. per minute. Fluorescence was measured by continuous illumination with UV light (Hamamatsu LC6) via fiber optic and filtered through a band-pass filter of about 390±10 nm; >6 OD cutoff. Fluorescence emissions were detected by measuring light intensity using a CCD camera (Sensys, Roper Scientific) filtered to detect about 500±25 nm; >6 OD cutoff. This allows for the entire plate to be simultaneously monitored and each sample to be independently monitored. One or more images were collected at an interval of every about 0.5° C. to about 1° C. The sum of the pixel intensity at a given area of the plate was recorded vs. temperature.
The values of Tm, ΔH, yF,Tm, mF, yU,Tm and mU were calculated for each sample according to Equation 9. Further, the value of Tm over the compound concentration was used to calculate the binding constant (KD) using Equation 10b. A shift in the denaturation curve of albumin indicates whether the compound binds to albumin, and the value of KD indicates the binding strength of compounds to albumin. A shift of the fluorescence signal indicates the specificity of compounds to albumin, and the value of IC50 indicates the binding strength to the site I (Equation 11).
The compounds and 1× reaction mixture were dispensed and measured for the fluorescence value using the plate-based reader Tecan® Safire II. Then the plate was heated in a ThermoFluor® system and measured for fluorescence value and the thermal shift value. The fluorescence values were measured twice by both plate reader and ThermoFluor®. The fluorescence value obtained from ThermoFluor® was used for qualitative assessment whereas those from the plate reader was used for quantitative assessment. The value of IC50 was determined by the fluorescence obtained from the plate reader and was fit using Equation 11 described above. The value of KD was determined by the readings from ThermoFluor® and was fit using Equation 10b described above.

[2] = molecular target: Human Serum Albumin (HSA) site I (Homo sapiens, UniProt P02768); experiment: 1,8-ANS site-specific probe displacement (fluorescence) from HSA site I; settings: percent displacement of the site-specific probe 1,8-ANS at the second highest concentration of test ligand
Source text: In addition to the thermal shift assay, the assay test plate may be utilized in a separate fluorescence measurement using a plate-based reader that is compatible with any relevant wavelengths. The preferred plate-based reader is Tecan Satire II. The displacement of site-specific probe such as 1,8-ANS from albumin site 1 by test ligand may cause a decrease in observed fluorescence that may be fit to Equation 11 to determine the value of IC50.
Additionally, the percent displacement may be determined by (y−yhigh), divided by the difference of low (y0) and high endpoints (yhigh), wherein y is determined at the second highest concentration. […]
The values of Tm, ΔH, yF,Tm, mF, yU,Tm and mU were calculated for each sample according to Equation 9. […] A shift of the fluorescence signal indicates the specificity of compounds to albumin, and the value of IC50 indicates the binding strength to the site I (Equation 11).
The compounds and 1× reaction mixture were dispensed and measured for the fluorescence value using the plate-based reader Tecan® Safire II. Then the plate was heated in a ThermoFluor® system and measured for fluorescence value and the thermal shift value. The fluorescence values were measured twice by both plate reader and ThermoFluor®. […] The value of IC50 was determined by the fluorescence obtained from the plate reader and was fit using Equation 11 described above. […]

[3] = molecular target: T1, Bovine Serum Albumin (BSA) (Bos taurus, UniProt P02769); experiment: ThermoFluor thermal shift assay with bovine serum albumin; type: binding; settings: Example 4, Table 3
T1 construct: The above albumins were prepared using method IV of Cohn et al. (J. Am. Chem. Soc. 69: 1753-1761, 1947) and purified with 1× crystallization; purchased Sigma A-7638
Source text: (§1) To evaluate the bioavailability of a compound in various species, the compound's affinity and specificity to albumins from human, bovine, rat, and mouse were examined. […] The resulting 1× reaction mixture comprising human serum albumin, bovine serum albumin, rat serum albumin, or mouse serum albumin was used with a panel of compounds in the binding assay.

Rat Serum Albumin = molecular target: T2, Rat Serum Albumin (Rattus norvegicus, UniProt P02770); experiment: ThermoFluor thermal shift assay with rat serum albumin; type: binding; settings: Example 4, Table 3
T2 construct: The above albumins were prepared using method IV of Cohn et al. (J. Am. Chem. Soc. 69: 1753-1761, 1947) and purified with 1× crystallization; purchased Sigma A-6414
Source text: as §1

Mouse Serum Albumin = molecular target: T3, Mouse Serum Albumin (Mus musculus, UniProt P07724); experiment: ThermoFluor thermal shift assay with mouse serum albumin; type: binding; settings: Example 4, Table 3
T3 construct: The above albumins were prepared using method IV of Cohn et al. (J. Am. Chem. Soc. 69: 1753-1761, 1947) and purified with 1× crystallization; purchased Sigma A-3559
Source text: as §1

HSA = HSA (Homo sapiens, UniProt P02768); settings: binding site on HSA from previous reports; cited from earlier work

Structure (SMILES) | Type of HSA Binding Interaction [1] | % Displacement [2] | Kd [3] [µM] | Kd (Rat Serum Albumin) [µM] | Kd (Mouse Serum Albumin) [µM] | Reported Binding Site (HSA) | Kd ([1]; HSA - KD, Example 3, Table 2, ThermoFluor, Equation 10b) [µM] | Kd ([1]; Human Albumin (KD), Example 4, Table 3) [µM]
COc1ccc2cc([C@H](C)C(=O)O)ccc2c1 [S-Naproxen, s-naproxen] | Type 2 | (02) % | 16.1 | 18.5 | 11.3 | Site 2 | – | –
NS(=O)(=O)c1cc(C(=O)O)c(NCc2ccco2)cc1Cl [Furosemide, furosemide] | Type 2 | (18) % | 49.1 | 24 | – | Site 1 | 16.7 | 16.7
